# Experimental data taken from the supplement of paper PMC4604168 (melanoma cell lines).
# The list shows a part of the results. Repeats are few or missing, and single values can be far off.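 The apoptosis fraction was the count of cleaved-PARP antibody-stained nuclei relative to all DNA-stained nuclei, imaged in 1,536-well plates. Screening doses were set so most cells survived, and baseline and induced cleaved-PARP levels vary greatly across cell lines.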
# Test system: COLO829
# Test: cleaved PARP positive nuclei fraction relative to DMSO control; melanoma cells; higher = more apoptosis
# Settings: library dose: low library concentration; 72 h
row,Compound,cleaved PARP positive nuclei fraction [%]
1,"NCC(=O)Nc1ccc(-n2nc(C(F)(F)F)cc2-c2ccc3c(ccc4ccccc43)c2)cc1 + O=S(=O)(c1ccccc1)N(CC(F)(F)F)c1ccc(C(O)(C(F)(F)F)C(F)(F)F)cc1 [T0901317] (first compound 1 µM, partner dose 1.4 µM)",142
2,"CCCCCCCCCCCC1=C(O)C(=O)C=C(O)C1=O [Embelin] + CC(C)CCN1c2nc(Nc3cc(F)c(O)c(F)c3)ncc2N(C)C(=O)C1C [BID1870] (first compound 1.2 µM, partner dose 0.2 µM)",89
3,"CCc1ccc(CCOc2ccc(CC3SC(=O)NC3=O)cc2)nc1 (stereo unspecified) [pioglitazone] + Oc1nc(-c2ccc(C(F)(F)F)cc2)nc2c1CSCC2 [XAV939] (first compound 2 µM, partner dose 2 µM)",87
4,"COc1ccc2c(c1)CCC1C2CCC2(C)C(NCCCCCCN3C(=O)C=CC3=O)CCC12 (stereo unspecified) + COc1cc2ncnc(Nc3ccc(Oc4ccccc4)cc3)c2cc1OC [SrcI1] (first compound 0.4 µM, partner dose 2 µM)",51.6
5,"COc1ccc2c(c1)CCC1C2CCC2(C)C(NCCCCCCN3C(=O)C=CC3=O)CCC12 (stereo unspecified) + Oc1cc(-c2nc(-c3ccccc3)[nH]c2-c2ccncc2)ccc1Cl [L779450] (first compound 0.4 µM, partner dose 0.2 µM)",40.5
6,"COc1cc2ncnc(Nc3ccc(Oc4ccccc4)cc3)c2cc1OC + Cc1cc([N+](=O)[O-])ccc1NS(=O)(=O)c1cc(Cl)ccc1Cl [FH535] (first compound 2 µM, partner dose 1 µM)",34.6
